The record followed here is patent US20110162109A1 (BASF PLANT SCIENCE, published 2011).

No constants are given. Whether binding was seen depends on the method and setting. For some assays here: Binding can be weak; no strength is given. For some assays here: Sequences can lack the tags named with a protein.

For test [1], the target named is Spen like protein, At1g27750 (Arabidopsis thaliana). Description: GS-TAP purification, bait SL.
Test [2] shares this target. Description: yeast two-hybrid, pDEST22 HUB1 against pDEST32 SL.
For test [3] the target is unchanged. Description: yeast two-hybrid.
Test [4] has the same target. Description: TAP, bait SL.
The target is the same in test [5]. Description: yeast two-hybrid, pDEST22 HUB1 no RING against pDEST32 SL.

B1: HUB1 (Histone Monoubiquitination 1), At2g44950, Arabidopsis thaliana (enzyme)
chain: MASTGEPDRKRRHFSSISPSEAAAAVKKQPFFWPSSEDKLDTAVLQFQNLKLSQKLEAQQVECSILEDKLSQIKEKQLPYNSSLKTVHKSWEKLTASVESCSVRVSDSSSGAHRFVNKEDGSSPAVKNDFINRLLETGATESSSSNICSNQMEENGVNTSSQMTQTLYNLVAATEDLRCLKDELYPTVLRTNLGKDLCGQLALSELESEIKSFRGDLDDVLVKFKSLSRELQSHRDADAKVRVDLKRIRGELEDEVVELQQCNGDLSALRAERDATAGAFFPVLSLGNKLATSDRERDKQRDLQDMETVLKELTVLASGRLQQLKNLHEERTKMLGKMSNLQNKSKSVRCISSSQACLSLKDQLEKSKEAVFQYMALLEKLQVEKDSIVWKEREINIKNELGDVSRKTSAVTDSRMASLDSEIQKQLDEKMRIKTRLGNISRERGRKEIFADMKALISSFPEEMSSMRSQLNNYKETAGGIHSLRADVQSLSGVLCRKTKEYEALQLRSADYASQLGDLNATVCDLKNSHEELKLFLDMYKRESTDARDIAEAKEQEYRAWAHVQSLKSSLDEQNLELRVKAANEAEAVSQQMLAAAEAEIADLRQKMDDCKRDVAKHSDILKSKHEEHGTYLSEIQTIGSAYEDIVPQNQRLLLQVTERDDYNIKLFLEGITSRQMQDTLLIDKYIMDKDIQQGSAYASFLSKKSSRIEDQLRFCTDQFQKLAEDKYQKSVSLENLQKKRADIGNGLEQARSRLEESHSKVEQSRLDYGALELELEIERFNRRRIEEEMEIAKKKVSRLRSLIEGSSAIQKLRQELSEFKEILKCKACNDRPKEVVITKCYHLFCNPCVQKLTGTRQKKCPTCSASFGPNDIKPIYI
notes: Full length HUB1; In the TAP experiments N-terminally fused to the TAP tag or the GS-TAP tag; in yeast two-hybrid fused to AD (pDEST22) or BD (pDEST32); all these constructs are written under this one entry; also called HUB1fl; full length HUB1
With B1, the binding entry in test [1], in test [2], in test [3] and in test [4] was “binds” each time.

B2: HUB1 no RING (enzyme)
chain: MASTGEPDRKRRHFSSISPSEAAAAVKKQPFFWPSSEDKLDTAVLQFQNLKLSQKLEAQQVECSILEDKLSQIKEKQLPYNSSLKTVHKSWEKLTASVESCSVRVSDSSSGAHRFVNKEDGSSPAVKNDFINRLLETGATESSSSNICSNQMEENGVNTSSQMTQTLYNLVAATEDLRCLKDELYPTVLRTNLGKDLCGQLALSELESEIKSFRGDLDDVLVKFKSLSRELQSHRDADAKVRVDLKRIRGELEDEVVELQQCNGDLSALRAERDATAGAFFPVLSLGNKLATSDRERDKQRDLQDMETVLKELTVLASGRLQQLKNLHEERTKMLGKMSNLQNKSKSVRCISSSQACLSLKDQLEKSKEAVFQYMALLEKLQVEKDSIVWKEREINIKNELGDVSRKTSAVTDSRMASLDSEIQKQLDEKMRIKTRLGNISRERGRKEIFADMKALISSFPEEMSSMRSQLNNYKETAGGIHSLRADVQSLSGVLCRKTKEYEALQLRSADYASQLGDLNATVCDLKNSHEELKLFLDMYKRESTDARDIAEAKEQEYRAWAHVQSLKSSLDEQNLELRVKAANEAEAVSQQMLAAAEAEIADLRQKMDDCKRDVAKHSDILKSKHEEHGTYLSEIQTIGSAYEDIVPQNQRLLLQVTERDDYNIKLFLEGITSRQMQDTLLIDKYIMDKDIQQGSAYASFLSKKSSRIEDQLRFCTDQFQKLAEDKYQKSVSLENLQKKRADIGNGLEQARSRLEESHSKVEQSRLDYGALELELEIERFNRRRIEEEMEIAKKKVSRLRSLIEGSSAIQKLRQELSEFKEILK
As to B2, the binding result in test [5] is given as “no binding”.
